Literature values in patent US20240156825A1.
The match of structure and compound is tentative.

Chains of the proteins cited; added tags and fusions are not shown. Residues count along the entry.
UniProt P35968, 20-1356 limits assumed: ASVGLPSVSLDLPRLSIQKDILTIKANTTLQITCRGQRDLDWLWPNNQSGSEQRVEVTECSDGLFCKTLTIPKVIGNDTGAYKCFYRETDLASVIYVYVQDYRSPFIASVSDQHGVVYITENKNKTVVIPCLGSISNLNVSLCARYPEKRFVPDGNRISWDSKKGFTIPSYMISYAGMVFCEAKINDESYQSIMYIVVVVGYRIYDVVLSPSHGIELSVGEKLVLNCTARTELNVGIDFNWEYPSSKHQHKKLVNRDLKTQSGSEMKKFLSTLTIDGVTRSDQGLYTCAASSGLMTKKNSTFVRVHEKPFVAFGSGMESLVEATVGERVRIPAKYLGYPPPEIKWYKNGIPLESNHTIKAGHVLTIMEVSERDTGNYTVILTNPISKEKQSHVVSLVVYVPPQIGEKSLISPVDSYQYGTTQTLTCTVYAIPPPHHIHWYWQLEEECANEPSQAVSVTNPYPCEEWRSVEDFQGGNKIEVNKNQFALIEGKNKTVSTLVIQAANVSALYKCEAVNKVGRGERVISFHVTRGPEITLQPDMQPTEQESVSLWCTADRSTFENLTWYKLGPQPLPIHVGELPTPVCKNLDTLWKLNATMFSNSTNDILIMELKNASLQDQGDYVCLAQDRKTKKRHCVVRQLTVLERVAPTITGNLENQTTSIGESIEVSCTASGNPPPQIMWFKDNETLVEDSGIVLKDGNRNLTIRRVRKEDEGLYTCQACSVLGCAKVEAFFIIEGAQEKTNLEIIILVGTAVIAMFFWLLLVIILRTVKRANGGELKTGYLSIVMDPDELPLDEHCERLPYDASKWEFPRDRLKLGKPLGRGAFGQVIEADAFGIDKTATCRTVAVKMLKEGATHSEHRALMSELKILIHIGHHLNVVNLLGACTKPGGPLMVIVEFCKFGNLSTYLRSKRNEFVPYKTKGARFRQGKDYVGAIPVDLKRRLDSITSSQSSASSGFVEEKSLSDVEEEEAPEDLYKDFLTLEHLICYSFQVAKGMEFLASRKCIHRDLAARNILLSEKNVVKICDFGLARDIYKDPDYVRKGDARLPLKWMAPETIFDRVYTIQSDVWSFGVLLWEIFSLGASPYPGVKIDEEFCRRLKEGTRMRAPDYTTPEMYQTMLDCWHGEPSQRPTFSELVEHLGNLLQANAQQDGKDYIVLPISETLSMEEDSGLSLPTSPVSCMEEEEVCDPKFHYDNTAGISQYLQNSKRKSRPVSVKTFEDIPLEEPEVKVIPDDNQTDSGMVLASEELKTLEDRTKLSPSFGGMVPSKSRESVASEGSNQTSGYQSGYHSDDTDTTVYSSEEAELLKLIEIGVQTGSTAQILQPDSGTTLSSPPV

How the values were obtained:
any gene target = conditions: read-out: Min IC50_μM; next lowest IC50 value to any gene target; cited from earlier work
VEGFR2 = VEGFR2 (Homo sapiens, UniProt P35968); conditions: read-out: VEGFR2 IC50_μM; reported IC50 to VEGFR2; cited from earlier work

| Structure (SMILES) | IC50 (any gene target) | IC50 (VEGFR2) |
| --- | --- | --- |
| COc1nc(Nc2ccc(-c3nc4ccccc4s3)c(OC)c2)c2nc[nH]c2n1 | 2100 nM | – |
| COc1cc2nccc(Oc3ccc4c(C(=O)NCC(F)(F)F)cccc4c3)c2cc1OC [compound 24823250] | 62 nM | 15 nM |
